For one test, the target named is T1, GFP BUB3.1 (UniProt Q9LJN8).
T1 sequence: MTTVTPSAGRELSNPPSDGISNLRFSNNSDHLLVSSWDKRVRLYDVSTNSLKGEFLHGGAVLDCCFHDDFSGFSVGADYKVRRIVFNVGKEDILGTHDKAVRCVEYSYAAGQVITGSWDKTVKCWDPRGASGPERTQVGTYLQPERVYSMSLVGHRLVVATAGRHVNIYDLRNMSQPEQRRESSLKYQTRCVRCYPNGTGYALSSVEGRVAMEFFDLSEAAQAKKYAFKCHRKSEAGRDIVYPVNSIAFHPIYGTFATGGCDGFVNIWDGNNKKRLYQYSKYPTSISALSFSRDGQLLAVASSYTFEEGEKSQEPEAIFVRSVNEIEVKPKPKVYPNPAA
Nature of the test: affinity purification with mass spectrometry.

Test [1] has as its target AtMCRS1-GFP fusion protein (Arabidopsis thaliana). Nature of the test: affinity purification with mass spectrometry.

For 4 molecules, binding results are on record in publication doi:10.1101/2023.07.11.548616.

These are yes or no findings as the source states them, for the method shown. Binding seen in cells or lysates may run through a third protein. These calls come from enrichment with a bait or labelling near it, and not all partners need be listed. A no says only that the protein was not detected with the bait. For some of these results: Tags and fused reporters may be left off the sequences shown.

As for “DP1, a paralog of DRMY1 (A. thaliana (endogenous in the plants))”, the binding entry with GFP BUB3.1 was “no binding”. On to “AtMCRS1 (endogenous) (A. thaliana (endogenous in the plants))”, for which the binding result with GFP BUB3.1 is recorded as “no binding”. As for “Development Related Myb-like1 (DRMY1) (A. thaliana (endogenous in the plants))”, the binding result with GFP BUB3.1 is given as “no binding”.

B1: BUB3.1 (endogenous) (protein, UniProt Q9LJN8 1-340)
chain: T1 sequence
Regarding B1, the binding entry in test [1] is listed as “no binding”.
